{
  "source": "patent US20240226074A1",
  "about": "“CELL-OF-ORIGIN TARGETED DRUG REPURPOSING FOR TRIPLE-NEGATIVE AND INFLAMMATORY BREAST CARCINOMA WITH HDAC AND HSP90 INHIBITORS COMBINED WITH NICLOSAMIDE” (priority 2022, published 2024)",
  "data": [
    {"experiment": "Peak serum concentrations achieved in clinical trials", "settings": "human, in vivo", "values": [
      {"smiles": "CCc1cc(C(N)=O)ccc1-n1nc(C(C)C)c2c(-n3cnc(-c4cnn(C)c4)c3)ccnc21", "note": "[Pimitespib]", "Ratio (Phase I-II Cmax / experimental three-drug concentration)": "11-35"},
      {"smiles": "O=C(CCCCCCC(=O)Nc1ccccc1)NO", "note": "[Vorinostat]", "Ratio (Phase I-II Cmax / experimental three-drug concentration)": 40},
      {"smiles": "O=C(Nc1ccc([N+](=O)[O-])cc1Cl)c1cc(Cl)ccc1O", "note": "[Niclosamide]", "Ratio (Phase I-II Cmax / experimental three-drug concentration)": 20},
      {"smiles": "O=C(/C=C/c1cccc(S(=O)(=O)Nc2ccccc2)c1)NO", "note": "[Belinostat]", "Ratio (Phase I-II Cmax / experimental three-drug concentration)": 200}
    ]}
  ]
}
